Values quoted from earlier work as cited in PMC2674521 (Journal of pharmaceutical sciences, 2009).

Experiments:
HSA = conditions: reference not given; cited from earlier work
[1] = cited from earlier work

**Q.** Which “affinity for site IIA of HSA (Ka)” value (HSA) does the source give for `NS(=O)(=O)c1cc(C(=O)O)c(NCc2ccco2)cc1Cl` [Furosemide] here?
**A.** 26000 M⁻¹

**Q.** What about the protein-bound in humans [1] of the same compound?
**A.** > 98%
